Drug screen on melanoma cell lines: apoptosis marker

Drug key:
IMD-0354: O=C(Nc1cc(C(F)(F)F)cc(C(F)(F)F)c1)c1cc(Cl)ccc1O at 80 nM
MK-2206: NC1(c2ccc(-c3nc4ccn5c(=O)[nH]nc5c4cc3-c3ccccc3)cc2)CCC1 at 2000 nM
enzastaurin: Cn1cc(C2=C(c3cn(C4CCN(Cc5ccccn5)CC4)c4ccccc34)C(=O)NC2=O)c2ccccc21 at 4000 nM
pioglitazone: CCc1ccc(CCOc2ccc(CC3SC(=O)NC3=O)cc2)nc1 (stereo not given) at 10000 nM
SNS-032: CC(C)(C)c1cnc(CSc2cnc(NC(=O)C3CCNCC3)s2)o1 at 50 nM
Src-I1: COc1cc2ncnc(Nc3ccc(Oc4ccccc4)cc3)c2cc1OC at 10000 nM
vorinostat: O=C(CCCCCCC(=O)Nc1ccccc1)NO at 400 nM
GW2580: COc1ccc(COc2ccc(Cc3cnc(N)nc3N)cc2OC)cc1 at 5000 nM
nutlin-3: COc1ccc(C2=N[C@@H](c3ccc(Cl)cc3)[C@@H](c3ccc(Cl)cc3)N2C(=O)N2CCNC(=O)C2)c(OC(C)C)c1 at 500 nM

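Human melanoma cells were exposed to two drugs together for 72 h in 1,536-well plates and read by automated microscopy after fixing and staining. Values are the share of nuclei positive for cleaved PARP as a percentage of the same share in the DMSO control: 100 is the control level, higher means more apoptosis. Every drug was used at one fixed concentration, the higher of two screened. The file gives one value for each pair and line, without errors, so small differences may be noise. The marker varies much from line to line, for technical or biological reasons.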
An unselected part of the screen is shown.
An entry leaves out what has no value listed here.

enzastaurin + nutlin-3 gave LB2518-MEL: 61.1; MeWo: 23.9; MZ2-MEL: 82.4; WM115: 112; WM3526: 200; COLO 792: 71.4.
Src-I1 + nutlin-3 gave LB2518-MEL: 88.0; MeWo: 129; MZ2-MEL: 80.4; WM115: 110; WM3526: 512; COLO 792: 141.
Src-I1 + pioglitazone gave LB2518-MEL: 55.6; MeWo: 92.4; MZ2-MEL: 232; WM115: 55.1; WM3526: 199; COLO 792: 217.
nutlin-3 + GW2580 gave LB2518-MEL: 111; MeWo: 57.1; MZ2-MEL: 63.3; WM115: 66.6; WM3526: 80.5; COLO 792: 70.1.
MK-2206 + SNS-032 gave LB2518-MEL: 231; MeWo: 101; MZ2-MEL: 142; WM115: 558; WM3526: 128; COLO 792: 155.
IMD-0354 + nutlin-3 gave LB2518-MEL: 59.5; MeWo: 110; MZ2-MEL: 40.0; WM115: 63.6; WM3526: 69.2; COLO 792: 103.
enzastaurin + pioglitazone gave LB2518-MEL: 89.6; MeWo: 195; MZ2-MEL: 30.7; WM115: 91.3; WM3526: 166; COLO 792: 95.2.
pioglitazone + nutlin-3 gave LB2518-MEL: 129; MeWo: 52.1; MZ2-MEL: 22.8; WM115: 86.4; WM3526: 82.0; COLO 792: 59.1.
GW2580 + SNS-032 gave LB2518-MEL: 80.3; MeWo: 206; MZ2-MEL: 97.4; WM115: 117; WM3526: 111; COLO 792: 32.1.
IMD-0354 + Src-I1 gave LB2518-MEL: 252; MeWo: 68.3; MZ2-MEL: 25.1; WM115: 85.0; WM3526: 290; COLO 792: 86.2.
pioglitazone + MK-2206 gave LB2518-MEL: 140; MeWo: 173; MZ2-MEL: 89.1; WM115: 348; WM3526: 200; COLO 792: 169.
vorinostat + MK-2206 gave LB2518-MEL: 259; MeWo: 75.3; MZ2-MEL: 132; WM115: 267; WM3526: 81.9; COLO 792: 120.
GW2580 + vorinostat gave LB2518-MEL: 39.8; MeWo: 77.3; MZ2-MEL: 188; WM115: 46.0; WM3526: 92.1; COLO 792: 92.5.
enzastaurin + SNS-032 gave MeWo: 146; WM115: 97.2; WM3526: 360; COLO 792: 183.
IMD-0354 + vorinostat gave LB2518-MEL: 59.3; MeWo: 52.0; MZ2-MEL: 199; WM115: 253; WM3526: 107; COLO 792: 129.
vorinostat + nutlin-3 gave LB2518-MEL: 119; MeWo: 160; MZ2-MEL: 116; WM115: 141; WM3526: 120; COLO 792: 46.1.
enzastaurin + Src-I1 gave LB2518-MEL: 189; MeWo: 163; MZ2-MEL: 48.1; WM115: 148; WM3526: 117; COLO 792: 109.
MK-2206 + Src-I1 gave LB2518-MEL: 70.5; MeWo: 206; MZ2-MEL: 41.3; WM115: 771; WM3526: 261; COLO 792: 493.
vorinostat + Src-I1 gave LB2518-MEL: 59.4; MeWo: 118; MZ2-MEL: 132; WM115: 373; WM3526: 71.7; COLO 792: 165.
enzastaurin + MK-2206 gave MeWo: 31.8; WM115: 173; WM3526: 85.2; COLO 792: 137.
GW2580 + enzastaurin gave LB2518-MEL: 176; MeWo: 142; MZ2-MEL: 42.6; WM115: 86.7; WM3526: 92.8; COLO 792: 84.8.
nutlin-3 + SNS-032 gave LB2518-MEL: 85.9; MeWo: 115; MZ2-MEL: 397; WM115: 179; WM3526: 136; COLO 792: 141.
IMD-0354 + SNS-032 gave LB2518-MEL: 113; MeWo: 89.5; MZ2-MEL: 129; WM115: 145; WM3526: 51.0; COLO 792: 60.4.
IMD-0354 + GW2580 gave LB2518-MEL: 88.1; MeWo: 86.7; MZ2-MEL: 57.4; WM115: 29.0; WM3526: 55.3; COLO 792: 56.2.
pioglitazone + IMD-0354 gave LB2518-MEL: 98.4; MeWo: 209; MZ2-MEL: 56.7; WM115: 57.9; WM3526: 72.0; COLO 792: 64.2.
pioglitazone + vorinostat gave LB2518-MEL: 159; MeWo: 52.5; MZ2-MEL: 73.8; WM115: 126; WM3526: 70.0; COLO 792: 163.
IMD-0354 + enzastaurin gave LB2518-MEL: 172; MeWo: 74.8; MZ2-MEL: 35.3; WM115: 22.1; WM3526: 29.2; COLO 792: 109.
Src-I1 + GW2580 gave LB2518-MEL: 32.4; MeWo: 80.8; MZ2-MEL: 43.7; WM115: 261; WM3526: 250; COLO 792: 83.5.
pioglitazone + SNS-032 gave LB2518-MEL: 67.6; MeWo: 55.8; MZ2-MEL: 88.8; WM115: 99.5; WM3526: 47.5; COLO 792: 62.6.
SNS-032 + vorinostat gave LB2518-MEL: 128; MeWo: 125; MZ2-MEL: 225; WM115: 176; WM3526: 164; COLO 792: 75.0.

Once more, the final 2:

{"combination": "pioglitazone + SNS-032", "LB2518-MEL": 67.6, "MeWo": 55.8, "MZ2-MEL": 88.8, "WM115": 99.5, "WM3526": 47.5, "COLO 792": 62.6}
{"combination": "SNS-032 + vorinostat", "LB2518-MEL": 128, "MeWo": 125, "MZ2-MEL": 225, "WM115": 176, "WM3526": 164, "COLO 792": 75.0}

From a melanoma drug combination screen (doi:10.1371/journal.pone.0140310); values rounded.